PubChem BioAssay AID1259308, NCATS, 2017
The deposit covers about 59,000 reagents; below is an unselected part. Over the whole deposit, about 1,510 (2.6%) were called active. 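Calls use total luciferase alone and ignore viability, so some active siRNAs may act by altering cell number.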 The numbers tell different reagents against one gene apart. Not all columns of the deposit are shown. No sequences are given here.

- Purpose: 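Genes whose loss raises luciferase production in HEK293 cells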 (primary screen)
- Cells: human HEK293 embryonic kidney cells stably expressing firefly luciferase (HEK-CMV-Luc2-Hygro)
- Knock-down reagent: single siRNA against human genes, 0.8 pmol siRNA per well
- Duration: 72 h
- Measurement: 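Reporter luminescence and viable-cell signal on separate replicate plates, given as percent of non-targeting control and median/MAD z-scores, plus per-cell luciferase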
- Scale: total luciferase, z-score: higher = more reporter protein produced
- Hit rule: 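Active when the median/MAD z-score for overall luciferase is greater than 3; a gene was taken forward for validation with new siRNAs if at least two of its three siRNAs passed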
- Meaning of the calls: active = raised luciferase; inactive = no rise

TOP2B #1 gave total luciferase, z-score 0.507; inactive.
TOP2B #2 scored total luciferase, z-score -0.331; inactive.
For TOP2B #3, the values are total luciferase, z-score -0.301; inactive.
MUC4 #1 showed total luciferase, z-score -1.95; inactive.
Against MUC4 #2 the deposit lists total luciferase, z-score 0.606; inactive.
Depletion of MUC4 #3 resulted in: total luciferase, z-score -2.15; inactive.
TAS2R42 #1 scored total luciferase, z-score 1.05; inactive.
Knock-down of TAS2R42 #2 resulted in: total luciferase, z-score -1.92; inactive.
Silencing of TAS2R42 #3 came out at: total luciferase, z-score 1.49; inactive.
PHB1 #1 gave total luciferase, z-score -0.32; inactive.
After knock-down of PHB1 #2 the results were total luciferase, z-score -0.611; inactive.
Knock-down of PHB1 #3 gave: total luciferase, z-score -0.536; inactive.

Records listed so far whose gene name begins with M or m:
MUC4 #1: total luciferase, z-score = -1.95; Outcome = inactive
MUC4 #2: total luciferase, z-score = 0.606; Outcome = inactive
MUC4 #3: total luciferase, z-score = -2.15; Outcome = inactive

The list goes on.
Against VDAC3 #1, the values are total luciferase, z-score -0.129; inactive.
Depletion of VDAC3 #2 came out at: total luciferase, z-score -0.718; inactive.
After knock-down of VDAC3 #3 the results were total luciferase, z-score -0.0176; inactive.
After knock-down of ODC1 #1, the record shows total luciferase, z-score -2.69; inactive.
Against ODC1 #2, the values are total luciferase, z-score -3.11; inactive.
For ODC1 #3 the deposit lists total luciferase, z-score -3.21; inactive.
For ACKR2 #1, the entry reads total luciferase, z-score 0.682; inactive.
Against ACKR2 #2, the values are total luciferase, z-score 0.133; inactive.
Depletion of ACKR2 #3 came out at: total luciferase, z-score -0.736; inactive.
